Measurements taken from PubChem BioAssay AID1745850 (National Center for Advancing Translational Sciences (NCATS), 2022).
The campaign covered roughly 2,100 compounds. About 260 (12%) were called active. Inconclusive means that the source gave no clear call. Such entries were picked first, then a sample of the others. Calls follow the shape of the dose curve; as a rule, active = well fitted cell-killing curve with a large enough effect; inconclusive = small, poorly fitted or top-dose-only effect, or effect the other way; inactive = flat fitted curve, though single readings scatter. Potencies of inconclusive entries are doubtful fits and often do not repeat.

Test: Viability Counterscreen for Confirmatory qHTS for Inhibitors of ATXN expression; also: nearly all actives have a fitted effect of over 50% in size
Settings: HEK-293 ATXN2-luc cells viability, CellTiter-Fluor, 24 h; activity change, negative = cytotoxicity: at 11.5 µM (top of the series) unless noted
Summary of the method: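 Cells with an ATXN2-luciferase reporter were dosed in a dilution series for 24 h at 37 degrees C. Viability was read first with Gly-Phe-AFC at 25 uM final (fluorescence, ex 405/em 540), then SteadyGlo luminescence. Medium-only wells defined 100% inhibition.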
Potency is read from the fitted curve at half-maximal effect.

With `Cc1cc([N+](=O)[O-])nn1Cc1ccc(C(=O)N/N=C/c2ccc(O)cc2O)cc1` as the compound, how does the Potency read?
The Potency was active: 10 µM.

Which Potency does the source give for `COc1ccc2nc(C)cc(Nc3ccc(N4CCOCC4)cc3)c2c1` here?
Its Potency is inconclusive: 35.5 µM [cytotoxic, single point].

Which Potency does the source give for `O=C(N/N=C/c1ccc([N+](=O)[O-])s1)c1ccccc1Br` here?
Its Potency is active: 22.4 µM.

For `O=C(COC(=O)c1cc([N+](=O)[O-])ccc1N1CCOCC1)Nc1ccc(Cl)cn1`, which Potency is on record?
The Potency was inconclusive: 31.6 µM [cytotoxic, single point].

Which “activity change, negative = cytotoxicity” value does the source give for `O=C(NC(c1ccccc1)c1c(O)ccc2ccccc12)c1ccccc1Cl` (centres undefined) here?
The value was inactive: -20.7%.

Which “activity change, negative = cytotoxicity” value does the source give for `COc1ccc(OCCNC(=O)C2(C)CCN2Cc2ccc3ccccc3c2)cc1` (centres undefined) here?
Its value is inactive: -28.2% [at 57.5 µM].

Which Potency does the source give for `Cc1cccn2c(=O)c(C(=O)NC3CC(C)CC(C)(C)C3)c(O)nc12` (centres undefined) here?
Its Potency is inconclusive: 39.8 µM [cytotoxic, single point].

With `OCCN1CCN(Cc2cc(Cl)c3cccnc3c2O)CC1` as the compound, how does the Potency read?
The Potency was inconclusive: 25.1 µM [cytotoxic, single point].

For `Cc1cccc(/C=C/C(=O)c2ccc([N+](=O)[O-])o2)c1`, which Potency is on record?
Its Potency is active: 3.55 µM.

For `O=C(N/N=C/c1cc(Br)cc(Br)c1O)c1cccc(N2CCCC2=O)c1`, which “activity change, negative = cytotoxicity” value is on record?
Its value is inactive: 14.3%.

With `O=C(Nc1cccnc1)C1Cc2c(-c3ccc4c(c3)OCO4)ccnc2O1` (centres undefined) as the compound, how does the “activity change, negative = cytotoxicity” value read?
Its value is inactive: -4.94%.

For `CCOC(=O)c1c(C)nn(-c2ccc(NC(=O)c3cccs3)cc2)c1C`, which Potency is on record?
The Potency was inconclusive: 35.5 µM [cytotoxic, single point].

With `Cc1cc(NC(c2cccnc2)c2ccc3cccnc3c2O)no1` (centres undefined) as the compound, how does the Potency read?
Its Potency is active: 8.91 µM.

For `CN1CCN(c2ccccc2NC(=O)c2ccc(-c3ccc(Cl)c(Cl)c3)o2)CC1`, which Potency is on record?
Its Potency is inconclusive: 25.1 µM [cytotoxic, single point].

For `Cc1ccc(NC(=O)COc2ccc(Br)cc2CO)cc1S(=O)(=O)N1CCOCC1`, which Potency is on record?
Its Potency is inconclusive: 39.8 µM [cytotoxic, single point].

For `CC(=O)N1c2ccc(S(=O)(=O)N3CCC(C(=O)N4CCN(c5ccc(Cl)cc5)CC4)CC3)cc2CC1C` (centres undefined), which Potency is on record?
Its Potency is inconclusive: 35.5 µM [cytotoxic, partial curve, poor fit].

Which “activity change, negative = cytotoxicity” value does the source give for `CCOc1ccc(C(=O)Nc2ccc(Cc3ccncc3)cc2)cc1Br` here?
The value was inactive: -20.8% [at 57.5 µM].

With `Cc1n(Cc2ccccc2)c2ccccc2[n+]1Cc1ccccc1` as the compound, how does the Potency read?
Its Potency is inconclusive: 3.16 µM [cytotoxic, partial curve, poor fit].

With `CCc1nn2cc(C(=O)c3cc(Cl)ccc3O)cnc2c1-c1ccc(F)cc1` as the compound, how does the Potency read?
Its Potency is inconclusive: 39.8 µM [cytotoxic, single point].

Which Potency does the source give for `NC(c1csc(Nc2ccc(C(F)(F)F)cn2)n1)C1CCCCC1` (centres undefined) here?
The Potency was inconclusive: 39.8 µM [cytotoxic, single point].

With `CC(=O)Oc1ccc(N(C(C)=O)S(=O)(=O)c2cccs2)c2ccccc12` as the compound, how does the Potency read?
Its Potency is inconclusive: 31.6 µM [cytotoxic, single point].

Which Potency does the source give for `C/C(=N\NC(=O)c1ccc(Cl)c(Cl)c1)c1ccccn1` here?
Its Potency is inconclusive: 1 µM [cytotoxic, full curve].

With `CC(C)(C)c1cc(C(=O)NN)n(Cc2ccc(Cl)cc2Cl)n1` as the compound, how does the Potency read?
The Potency was inconclusive: 22.4 µM [cytotoxic, partial curve].

For `CN(CC(=O)Nc1ccc(Cl)c(C(F)(F)F)c1)C(=O)c1cccnc1Sc1ccccc1`, which “activity change, negative = cytotoxicity” value is on record?
Its value is inactive: -12% [at 57.5 µM].

With `COc1cc(-c2cnc3c(NC=O)cc(-c4cccc(C(F)(F)F)c4)cn23)cc(OC)c1OC` as the compound, how does the Potency read?
Its Potency is inconclusive: 14.1 µM [cytotoxic, partial curve, poor fit].

With `OC1CCCN(Cc2c3ccccc3cc3ccccc23)C1` (centres undefined) as the compound, how does the Potency read?
The Potency was inconclusive: 39.8 µM [cytotoxic, single point].

Which “activity change, negative = cytotoxicity” value does the source give for `CCCCOc1ccccc1NC(=O)c1scc2c1OCCO2` here?
The value was inactive: -17.1%.

Which Potency does the source give for `Cc1ccccc1Oc1cc(NC(=O)CCCn2nc(C)c([N+](=O)[O-])c2C)cc([N+](=O)[O-])c1` here?
The Potency was inconclusive: 3.16 µM [cytotoxic, partial curve, poor fit].

Which Potency does the source give for `Cc1cc(C)cc(C(=O)N(NC(=O)Nc2ccc(Cl)cc2)C(C)(C)C)c1` here?
The Potency was inconclusive: 25.1 µM [cytotoxic, single point].

For `C/C(=N\NC(=O)CSCc1ccc([N+](=O)[O-])cc1)c1ccccc1O`, which “activity change, negative = cytotoxicity” value is on record?
The value was inactive: -8.24%.

Which Potency does the source give for `O=C(N/N=C/c1cc([N+](=O)[O-])ccc1O)c1cccc2cc[nH]c12` here?
Its Potency is inconclusive: 11.2 µM [cytotoxic, partial curve].

Which Potency does the source give for `N#C/C(=C/c1ccc(Sc2nc3ccccc3[nH]2)o1)c1cccc(F)c1` here?
Its Potency is inconclusive: 3.16 µM [cytotoxic, single point].

Which Potency does the source give for `CCCCCn1c(=N)n(CC(O)COc2ccccc2OC)c2ccccc21` (centres undefined) here?
The Potency was active: 3.98 µM.

Which Potency does the source give for `Cc1c(C(=O)NCc2ccc(Cl)c(Cl)c2)sc(=O)n1Cc1ccc(S(C)(=O)=O)cc1` here?
Its Potency is inconclusive: 3.16 µM [cytotoxic, partial curve, poor fit].

Which Potency does the source give for `O=[N+]([O-])c1ccc(O)c2ncccc12` here?
The Potency was active: 11.2 µM.

For `CC(=O)c1ccc(N2CCN(CC(O)COC(c3ccccc3)c3ccccc3)CC2)cc1` (centres undefined), which “activity change, negative = cytotoxicity” value is on record?
The value was inactive: -7.3%.

For `CC(=O)c1ccc(S(=O)(=O)N2CCN(CCOc3ccc(Br)cc3)CC2)cc1`, which “activity change, negative = cytotoxicity” value is on record?
The value was inactive: -18.1%.

With `Cc1ccc(-c2cc(-c3ccccc3)nc(NN)n2)cc1` as the compound, how does the Potency read?
Its Potency is inconclusive: 35.5 µM [cytotoxic, partial curve, poor fit].

For `O=C(N/N=C/c1cc(Br)cc(Br)c1O)c1ccncc1`, which Potency is on record?
The Potency was inconclusive: 11.2 µM [cytotoxic, partial curve, poor fit].

With `N#C/C(=C\C=C\c1ccccc1[N+](=O)[O-])C(=O)NC1CCCCC1` as the compound, how does the Potency read?
The Potency was active: 20 µM.

Which Potency does the source give for `COc1cc(NC(=O)c2cccc3c(-c4cccnc4)coc23)cc(OC)c1OC` here?
The Potency was inconclusive: 2.82 µM [cytotoxic, partial curve].

Which “activity change, negative = cytotoxicity” value does the source give for `c1ccc(Cn2c(-c3ccccc3)c[n+]3c2SCCC3)cc1` here?
Its value is inactive: -19.7% [at 57.5 µM].

With `CN(C)CCCN(C(=O)c1ccco1)c1nc2ccc(Br)cc2s1` as the compound, how does the Potency read?
The Potency was inconclusive: 28.2 µM [cytotoxic, single point].

With `Cn1c(COc2ccc(Cl)cc2)nnc1SCc1ncc(-c2ccccc2)o1` as the compound, how does the Potency read?
Its Potency is inconclusive: 25.1 µM [cytotoxic, partial curve, poor fit].
